These are yes or no findings as the source states them, for the method shown.
Target: T1, WT-CsgF (curli accessory protein CsgF) (E. coli) (UniProt P0AE98)
T1 sequence (chain, lysine residues sparsely labeled with Alexa-633; labeled,unlabeled 1,50): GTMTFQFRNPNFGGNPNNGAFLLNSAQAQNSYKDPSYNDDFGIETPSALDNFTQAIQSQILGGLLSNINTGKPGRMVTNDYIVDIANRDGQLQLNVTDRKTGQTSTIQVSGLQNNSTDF
Assay: fluorescence microscopy of recruitment into phase-separated droplets; CsgF condensates (20 µM, from 100 µM CsgF in 25 mM potassium phosphate pH 7.5) added to the labelled curli subunit (CsgB 20 µM) at room temperature; labeled:unlabeled 1:50; both purified

Sequences of proteins named here, by UniProt entry; tags and fusion partners are left off. Residues count along the entry.
UniProt P28307, residues 21-151: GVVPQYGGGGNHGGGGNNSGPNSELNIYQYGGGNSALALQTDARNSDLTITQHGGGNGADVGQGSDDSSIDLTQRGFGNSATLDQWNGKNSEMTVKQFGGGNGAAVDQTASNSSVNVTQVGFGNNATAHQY

“CsgA (curli major subunit) (from UniProt P28307 21-151)” was tested, and the binding was “no binding”.
